{"source": "PubChem BioAssay AID652259 (Drosophila RNAi Screening Center, 2013)", "aim": "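Knock-downs that push a Wingless-driven reporter up or down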 (primary screen)", "cell system": "Drosophila clone 8 imaginal disc epithelial cells", "knock-down reagent": "long dsRNA against Drosophila genes", "challenge": "pathway stimulated by co-transfected Wingless expression plasmid", "detection": "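Firefly luciferase from a tcf-site Wingless reporter, measured alongside co-transfected Renilla luciferase that tracks transfection; pathway stimulated by a Wingless plasmid; the firefly-to-Renilla ratio is not deposited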", "reading the numbers": "firefly reporter light: higher = more Wg reporter light, before normalisation; Renilla control light: higher = more transfected or surviving cells", "hit rule": "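Strong candidates differ from their plate mean by at least two out of four per-plate statistical tests; weak candidates meet just one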", "meaning of the calls": "active = candidate regulator (raises or lowers reporter); inactive = not a candidate", "note": "In all, the deposit lists about 22,000 reagents; this is a random part of those with a known target gene and a result. Over the whole deposit, 233 (1.1%) got an active call. 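Light values are raw, unnormalised plate reads; the ratio scores behind the reporter calls were not deposited.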 Reagents against one gene are numbered here. Names joined by + are all predicted targets of the reagent. Reagent sequences are not shown. Not stated in the record: the amount of reagent, the time to read-out, the dose of the treatment."}
{"target gene":"CG9674","reagent":1,"firefly reporter light, replicate 1":6224,"Renilla control light, replicate 1":2211,"Outcome":"inactive"}
{"target gene":"CG9674","reagent":2,"firefly reporter light, replicate 1":5176,"Renilla control light, replicate 1":2358,"Outcome":"inactive"}
{"target gene":"Bet1 (Blocked early in transport 1)","reagent":1,"firefly reporter light, replicate 1":20064,"Renilla control light, replicate 1":4186,"Outcome":"inactive"}
{"target gene":"Vta1 (Vesicle trafficking 1)","reagent":1,"firefly reporter light, replicate 1":8928,"Renilla control light, replicate 1":3707,"Outcome":"inactive"}
{"target gene":"Vta1 (Vesicle trafficking 1)","reagent":2,"firefly reporter light, replicate 1":6.47e5,"firefly reporter light, replicate 2":5.76e5,"Renilla control light, replicate 1":2.61e5,"Renilla control light, replicate 2":2.55e5,"Outcome":"inactive"}
{"target gene":"Rab9Db + Rab9D + Rab9E","reagent":1,"firefly reporter light, replicate 1":3132,"Renilla control light, replicate 1":1187,"Outcome":"inactive"}
{"target gene":"CG31517","reagent":1,"firefly reporter light, replicate 1":4098,"Renilla control light, replicate 1":1611,"Outcome":"inactive"}
{"target gene":"CG12164","reagent":1,"firefly reporter light, replicate 1":19336,"Renilla control light, replicate 1":6471,"Outcome":"inactive"}
{"target gene":"CG12164","reagent":2,"firefly reporter light, replicate 1":2.80e5,"firefly reporter light, replicate 2":3.59e5,"Renilla control light, replicate 1":1.67e5,"Renilla control light, replicate 2":1.34e5,"Outcome":"inactive"}
{"target gene":"Hrb87F (Heterogeneous nuclear ribonucleoprotein at 87F)","reagent":1,"firefly reporter light, replicate 1":5875,"Renilla control light, replicate 1":2373,"Outcome":"inactive"}
{"target gene":"CG13838","reagent":1,"firefly reporter light, replicate 1":28775,"Renilla control light, replicate 1":21725,"Outcome":"inactive"}
{"target gene":"pav (pavarotti)","reagent":1,"firefly reporter light, replicate 1":6480,"Renilla control light, replicate 1":2658,"Outcome":"inactive"}

Copied from the list.
Value of CG13838 in “Renilla control light, replicate 1”: 21725
Rab9Db + Rab9D + Rab9E, firefly reporter light, replicate 1: 3132
